These are yes or no findings as the source states them, for the method shown. For some assays here: In cells and extracts the contact can be indirect. Some binding calls cover weakened binding; strength is not graded here. For some assays here: Where a sequence is shown, tags or fusion partners need not be part of it.
Legend:
[1] = target: T1, TBK1 (endogenous, MEFs) (mouse (MEFs)) (UniProt Q9WUN2); test: co-immunoprecipitation with anti-FLAG from cytoplasmic and nuclear fractions of Act1-/- MEFs with FLAG-Act1 WT, IL-17 lanes 0, 30, 60, 180 (unit not given), Western blot
T1 sequence (looked up): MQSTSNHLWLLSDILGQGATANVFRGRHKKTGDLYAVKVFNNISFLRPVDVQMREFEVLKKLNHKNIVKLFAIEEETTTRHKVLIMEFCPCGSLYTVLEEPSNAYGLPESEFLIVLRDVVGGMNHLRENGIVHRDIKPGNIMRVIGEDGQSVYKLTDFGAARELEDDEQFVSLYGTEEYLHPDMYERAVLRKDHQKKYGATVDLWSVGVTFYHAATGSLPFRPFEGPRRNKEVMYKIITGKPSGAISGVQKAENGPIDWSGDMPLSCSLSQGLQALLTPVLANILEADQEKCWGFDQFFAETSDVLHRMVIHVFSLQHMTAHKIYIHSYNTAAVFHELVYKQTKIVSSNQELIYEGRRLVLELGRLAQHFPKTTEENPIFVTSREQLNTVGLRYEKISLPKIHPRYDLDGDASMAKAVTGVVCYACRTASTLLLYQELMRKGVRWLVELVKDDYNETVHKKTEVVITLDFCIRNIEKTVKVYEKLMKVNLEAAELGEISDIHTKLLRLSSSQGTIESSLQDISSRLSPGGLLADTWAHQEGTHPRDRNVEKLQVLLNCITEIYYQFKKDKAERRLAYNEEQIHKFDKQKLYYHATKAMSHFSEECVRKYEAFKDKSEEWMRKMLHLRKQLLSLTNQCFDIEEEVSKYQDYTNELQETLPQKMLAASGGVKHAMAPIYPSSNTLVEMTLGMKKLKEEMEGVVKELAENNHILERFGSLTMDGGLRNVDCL

Chains of the proteins cited; added tags and fusions are not shown.
UniProt O43734: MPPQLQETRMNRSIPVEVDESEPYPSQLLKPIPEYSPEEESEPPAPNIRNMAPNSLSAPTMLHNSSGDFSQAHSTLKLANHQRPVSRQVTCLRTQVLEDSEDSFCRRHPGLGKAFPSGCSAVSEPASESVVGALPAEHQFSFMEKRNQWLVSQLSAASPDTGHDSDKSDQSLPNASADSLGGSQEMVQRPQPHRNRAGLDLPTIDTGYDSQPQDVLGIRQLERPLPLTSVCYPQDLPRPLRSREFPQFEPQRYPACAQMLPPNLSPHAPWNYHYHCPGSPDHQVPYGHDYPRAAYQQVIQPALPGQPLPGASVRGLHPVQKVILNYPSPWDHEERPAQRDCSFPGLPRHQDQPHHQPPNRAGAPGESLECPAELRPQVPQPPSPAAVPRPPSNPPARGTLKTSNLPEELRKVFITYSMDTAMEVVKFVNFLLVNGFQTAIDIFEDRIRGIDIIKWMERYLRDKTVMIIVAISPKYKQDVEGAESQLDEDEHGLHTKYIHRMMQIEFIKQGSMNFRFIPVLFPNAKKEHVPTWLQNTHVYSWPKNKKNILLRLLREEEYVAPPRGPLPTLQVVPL

[2] = target: T2, IKKi (endogenous, MEFs) (mouse (MEFs)) (UniProt Q9R0T8); test: as above
T2 sequence (looked up): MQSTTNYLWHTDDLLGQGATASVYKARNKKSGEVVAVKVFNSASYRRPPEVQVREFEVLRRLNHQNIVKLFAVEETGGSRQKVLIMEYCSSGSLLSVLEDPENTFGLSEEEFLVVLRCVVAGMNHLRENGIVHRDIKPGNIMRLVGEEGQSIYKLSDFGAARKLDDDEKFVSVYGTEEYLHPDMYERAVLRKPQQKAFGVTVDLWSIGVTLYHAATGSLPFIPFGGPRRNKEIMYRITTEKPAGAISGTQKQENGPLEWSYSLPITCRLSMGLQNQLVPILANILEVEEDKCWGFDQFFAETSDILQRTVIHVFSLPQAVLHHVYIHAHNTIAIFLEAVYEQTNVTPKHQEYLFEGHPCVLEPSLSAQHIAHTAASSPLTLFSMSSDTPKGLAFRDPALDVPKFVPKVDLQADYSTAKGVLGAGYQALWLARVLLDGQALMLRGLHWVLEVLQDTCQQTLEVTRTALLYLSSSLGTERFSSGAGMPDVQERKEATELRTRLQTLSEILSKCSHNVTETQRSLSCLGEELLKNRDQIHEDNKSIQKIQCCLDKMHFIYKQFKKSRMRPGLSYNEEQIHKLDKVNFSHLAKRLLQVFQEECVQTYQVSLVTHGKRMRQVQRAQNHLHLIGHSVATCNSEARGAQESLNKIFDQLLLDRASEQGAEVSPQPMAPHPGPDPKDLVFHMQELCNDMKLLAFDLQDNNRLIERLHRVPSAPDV

[3] = target: T3, Dcp1 (endogenous, MEFs) (mouse (MEFs)) (UniProt Q91YD3); test: co-immunoprecipitation with anti-Dcp1 from untreated and IL-17-treated Act1-expressing MEFs
T3 sequence (looked up): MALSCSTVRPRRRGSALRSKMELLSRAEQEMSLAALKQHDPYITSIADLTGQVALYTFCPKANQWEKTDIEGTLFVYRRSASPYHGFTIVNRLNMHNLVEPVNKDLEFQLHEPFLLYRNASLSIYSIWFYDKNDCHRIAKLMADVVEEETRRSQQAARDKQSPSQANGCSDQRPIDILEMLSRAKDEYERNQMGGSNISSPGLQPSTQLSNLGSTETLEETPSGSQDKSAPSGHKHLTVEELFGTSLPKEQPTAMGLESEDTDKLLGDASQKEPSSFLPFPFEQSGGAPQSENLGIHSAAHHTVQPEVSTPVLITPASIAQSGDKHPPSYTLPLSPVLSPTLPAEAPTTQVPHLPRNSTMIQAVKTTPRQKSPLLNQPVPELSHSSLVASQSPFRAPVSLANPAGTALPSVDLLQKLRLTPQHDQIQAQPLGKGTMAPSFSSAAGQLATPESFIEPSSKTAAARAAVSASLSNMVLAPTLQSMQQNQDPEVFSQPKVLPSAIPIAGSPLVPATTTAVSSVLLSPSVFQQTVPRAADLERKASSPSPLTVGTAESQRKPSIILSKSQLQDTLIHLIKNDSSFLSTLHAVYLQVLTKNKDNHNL

[4] = target: T1, TBK1 (endogenous, MEFs) (mouse (MEFs)); test: co-immunoprecipitation with anti-TBK1 from Act1-/- MEFs reconstituted with wild-type Act1, IL-17 0, 15, 30, 60 min, Western blot
[5] = target: T3, Dcp1 (endogenous, MEFs) (mouse (MEFs)); test: co-immunoprecipitation with anti-FLAG from Act1-/- MEFs reconstituted with FLAG-Act1 WT, IL-17 lanes 0, .5, 1, 2, 3 (sheet prints 'min'), Western blot
[6] = target: FLAG-hDcp2 (human), Q8IU60; test: co-immunoprecipitation with anti-FLAG from HeLa cells transfected with V5-Dcp1, FLAG-Dcp2 and rising HA-TBK1, V5 blot; conditions: remark: other sources report otherwise
[7] = target: FLAG-hDcp2 (human), Q8IU60; test: anti-FLAG co-immunoprecipitation from HeLa cells transfected with V5-Dcp1, FLAG-Dcp2 and/or HA-TBK1 (FIG. 4G); conditions: remark: other sources report otherwise
[8] = target: T1, TBK1 (endogenous, MEFs) (mouse (MEFs)); test: co-immunoprecipitation of Act1 from MEFs, IL17 0, 15, 30, 60, 180 min, with DMSO or the inhibitor MRT67307, Western blot
[9] = target: T3, Dcp1 (endogenous, MEFs) (mouse (MEFs)); test: as above
[10] = target: T3, Dcp1 (endogenous, MEFs) (mouse (MEFs)); test: anti-Act1 immunoprecipitation from MEFs, IL-17, with or without MRT67307 (FIG. 4H)
FLAG-hAct1 (human) = FLAG-hAct1 (human) (UniProt O43734); test: co-purification on anti-FLAG/M2 beads from transfected HeLa cells, Western blot

B1: FLAG-tagged mouse wild-type Act1 (WT) (protein, UniProt Q8N7N6 1-555, looked up, not shown: small tags and cut ends)
chain: MNRSIPVEVDESEPFPSQLLKPIPEYSPEEELEPPAPNTRNMAPSSLSVLQCPPLKLANHQPVSQQVTCLRAKVLEEGEASFFRRHPELGKDISSCSSGASEPESELGALPPEHRFTLTEKRNRWLGSQLSAASPDTGHESDKSDPSLPNALADSFSGGQEMMPRPRPRPGPHRHRAAPDVPTIDTGYDSQPQDVLGIRQLERPLPLTSSCYLQDLPGPLRSRELPPQFELERYPMNAQLLPPHPSPQAPWNCQYYCPGGPYHHQVPHGHGYPPAAAYQQVLQPALPGQVLPGARARGPRPVQKVILNDSSPQDQEERPAQRDFSFPRLPRDQLYRPPSNGVEAPEESLDLPAELRPHGPQAPSLAAVPRPPSNPLARGTLRTSNLPEELRKVFITYSMDTAMEVVKFVNFLLVNGFQTAIDIFEDRIRGIDIIKWMERYLRDKTVMIIVAISPKYKQDVEGAESQLDEDEHGLHTKYIHRMMQIEFISQGSMNFRFIPVLFPNAKKEHVPTWLQNTHVYSWPKNKKNILLRLLREEEYVAPPRGPLPTLQVVPL
binding [1]: binds | binding [2]: binds | binding [3]: binds | binding [4]: binds | binding [5]: binds

B2: V5-hDcp1a, Q9NPI6 1-582 (enzyme, human, UniProt Q9NPI6 1-582, looked up, not shown: small tags and cut ends)
chain: MEALSRAGQEMSLAALKQHDPYITSIADLTGQVALYTFCPKANQWEKTDIEGTLFVYRRSASPYHGFTIVNRLNMHNLVEPVNKDLEFQLHEPFLLYRNASLSIYSIWFYDKNDCHRIAKLMADVVEEETRRSQQAARDKQSPSQANGCSDHRPIDILEMLSRAKDEYERNQMGDSNISSPGLQPSTQLSNLGSTETLEEMPSGSQDKSAPSGHKHLTVEELFGTSLPKEQPAVVGLDSEEMERLPGDASQKEPNSFLPFPFEQLGGAPQSETLGVPSAAHHSVQPEITTPVLITPASITQSNEKHAPTYTIPLSPVLSPTLPAEAPTAQVPPSLPRNSTMMQAVKTTPRQRSPLLNQPVPELSHASLIANQSPFRAPLNVTNTAGTSLPSVDLLQKLRLTPQHDQIQTQPLGKGAMVASFSPAAGQLATPESFIEPPSKTAAARVAASASLSNMVLAPLQSMQQNQDPEVFVQPKVLSSAIPVAGAPLVTATTTAVSSVLLAPSVFQQTVTRSSDLERKASSPSPLTIGTPESQRKPSIILSKSQLQDTLIHLIKNDSSFLSTLHEVYLQVLTKNKDNHNL
binding [6]: binds | binding [7]: binds

B3: Act1 (MEFs, immunoprecipitated with anti-Act1) (protein, mouse (MEFs), UniProt Q8N7N6 1-555, looked up)
chain: B1 chain
binding [8]: binds | binding [9]: binds | binding [10]: binds

B4: TBK1 (endogenous, HeLa cells) (enzyme, human (HeLa cells), UniProt Q9UHD2 1-729, looked up)
chain: MQSTSNHLWLLSDILGQGATANVFRGRHKKTGDLFAIKVFNNISFLRPVDVQMREFEVLKKLNHKNIVKLFAIEEETTTRHKVLIMEFCPCGSLYTVLEEPSNAYGLPESEFLIVLRDVVGGMNHLRENGIVHRDIKPGNIMRVIGEDGQSVYKLTDFGAARELEDDEQFVSLYGTEEYLHPDMYERAVLRKDHQKKYGATVDLWSIGVTFYHAATGSLPFRPFEGPRRNKEVMYKIITGKPSGAISGVQKAENGPIDWSGDMPVSCSLSRGLQVLLTPVLANILEADQEKCWGFDQFFAETSDILHRMVIHVFSLQQMTAHKIYIHSYNTATIFHELVYKQTKIISSNQELIYEGRRLVLEPGRLAQHFPKTTEENPIFVVSREPLNTIGLIYEKISLPKVHPRYDLDGDASMAKAITGVVCYACRIASTLLLYQELMRKGIRWLIELIKDDYNETVHKKTEVVITLDFCIRNIEKTVKVYEKLMKINLEAAELGEISDIHTKLLRLSSSQGTIETSLQDIDSRLSPGGSLADAWAHQEGTHPKDRNVEKLQVLLNCMTEIYYQFKKDKAERRLAYNEEQIHKFDKQKLYYHATKAMTHFTDECVKKYEAFLNKSEEWIRKMLHLRKQLLSLTNQCFDIEEEVSKYQEYTNELQETLPQKMFTASSGIKHTMTPIYPSSNTLVEMTLGMKKLKEEMEGVVKELAENNHILERFGSLTMDGGLRNVDCL
binding (FLAG-hAct1 (human)): binds

— patent US20230009539A1
